Assay results as given in patent publication US20220348876A1, “METABOLISM GUIDES DEFINITIVE LINEAGE SPECIFICATION DURING ENDOTHELIAL TO HEMATOPOIETIC TRANSITION” (Amniotics AB, priority 2019, published 2022).
At least one compound was matched to its structure with a doubt left.

Legend:
Type in all cases: cell-based, human
HE cells [1] = assay: single-cell RNAseq of treated HE cells at day 2
Experimental: Sorted HE, EHT and HSC-like cells as well magnetically selected (Miltenyi Biotec) cord blood CD34^+ cells were plated onto Matrigel (16 μg/cm^2, Corning)-coated 96-well flat bottom plates in HE medium (Ditadi, A. & Sturgeon, C. M. Methods 101, 65-72 (2016)) with 1% penicillin-streptomycin and kept in a humidified incubator at 37° C., 5% CO2, 4% O2 overnight. The following day (day 0), wells were washed twice with PBS and fresh HE medium was added, together with UK5099 (10 μM) or DCA (3 mM), where indicated. On day 1 and 2 (as indicated), cells were washed twice with PBS 0.04% UltraPure BSA and collected after a 2-minute incubation at 37° C. with StemPro Accutase Cell Dissociation Reagent. Cells were spun down, resuspended in PBS 0.04% UltraPure BSA, counted (yield between 8,000-18,000 cells) and library preparation was conducted according to the Chromium Single Cell 3′ Reagent kit v3 instructions (10× Genomics). Sequencing was performed on a NOVASeq 6000 from Illumina with the run parameters (28-8-0-91) recommended by 10× Genomics with a final loading concentration of 300 pM of the pooled libraries. Human Umbilical Cord Blood samples were collected from Skane University Hospital (Lund and Malmo) and Helsingborg Hospital with informed consents according to guidelines approved by the regional ethical committee.
The data was processed and analyzed using Seurat v3.1.0, where cells were allowed to have up to 20% mitochondrial reads prior to log-normalization and finding the top 500 variable genes using the “vst” method. Cell cycle scores were calculated and the data was scaled regressing on mitochondrial content and the difference of the S and G2M score. Principal components were calculated prior to calculating a UMAP. Pseudotime trajectories describing two developmental routes were identified in our EHT dataset using Slingshot (Street, K. et al. BMC Genomics 19, 477 (2018)) along which the cells were ordered. The cells were then binned along each trajectory where the cell-type composition of each bin was calculated as percentages. Cord blood CD34^+ cells were mapped to our data and labeled using scCoGAPS (Stein-O'Brien, G. L. et al. Cell Syst 8, 395-411.e8 (2019)). CS13 data from Zeng et al. (Zeng, Y. et al. Cell Res 1-14 (2019)) was read and processed to make a UMAP from which the cells they name as “AEC” and “Hem” were identified. […] All assessed endothelial and hematopoietic genes were previously used in several publications to validate the EHT process (Zhou, F. et al. Nature 533, 487-492 (2016); Swiers, G. et al. Nat Commun 4, 2924 (2013); Ng, E. S. et al. Nature Biotechnology 34, 1168-1179 (2016) and Guibentif, C. et al. Cell Reports 19, 10-19 (2017)). […]

HE cells [2] = assay: globin transcript q-PCR in CFU colonies; details: normalized to KLF1, relative to non-treated
Experimental: Subcultured HE cells were treated with StemPro Accutase Cell Dissociation Reagent for 2 minutes at 37° C. and dissociated cells were resuspended in 3 ml Methocult H4230 (STEMCELL Technologies, France) (prepared according to manufacturer's instructions, with 20 mL Iscove's Modified Dulbecco's Medium containing 2.5 μg hSCF, 5 μg GM-CSF, 2.5 μg IL-3 and 500 U EPO). Each mixture was divided onto 2 wells of a non-tissue culture treated 6-well plate. Following a 12-day incubation in a humidified incubator at 37° C., 5% CO2, 20% O2, colonies were morphologically distinguished and scored. For globin analysis, colonies in Methocult wells were harvested with PBS, washed thoroughly and frozen in RLT buffer with β-mercaptoethanol. Following RNA extraction and RT (Qiagen), gene expression was assessed with taqman probes by q-PCR. The taqman probes used in this study are HBA1/2 (Hs00361191_g1), HBE1 (Hs00362216_m1), HBG2/1 (Hs00361131_g1) and KLF1 (Hs00610592_m1).

HE cells [3] = assay: HE cell subculture with compounds, flow cytometry
HE cells [4] = assay: Lymphoid differentiation assay on OP9-DL1 stroma; details: 3-day subculture with UK5099 10 μM or DCA 3 mM, then 35-day co-culture, vs untreated
Experimental: Subculture day 3 HE cells cultured in the presence of UK5099 (10 μM), DCA (3 mM), or in glutamine-free medium with DMK (1.75 mM), nucleosides (1×) or NEAAs (1×), as indicated, were collected after a 2-minute incubation at 37° C. with StemPro Accutase Cell Dissociation Reagent and seeded onto 80% confluent OP9-DL1 stroma. Cells were cultured in OP9 medium with SCF (10 ng/ml), FLT3-L (10 ng/ml), IL-2 (5 ng/ml), IL-7 (5 ng/ml, first 15 days only) and IL-15 (10 ng/ml) with passaging onto new OP9-DL1 stroma every week, as described previously (Renoux, V. M. et al. Immunity 43, 394-407 (2015)). At day 35 of co-culture, cells were analyzed on a BD LSRFortessa.

O=C(O)C(Cl)Cl [DCA, dichloroacetate]
levels of lymphoid/myeloid transcription factors (SWAP70, POU2F2, GATA3, CSF1R, PF4, BCL11B, CEBPE, IRF8) (HE cells [1]; clusters 6 and 7, compared to control and UK5099): higher levels | average expression levels of erythroid lineage genes (RYK, KLF3, TAL1, GATA2, ZFPM1, KLF1, NFE2, ANK1, HBQ1) (HE cells [1]; clusters 6 and 7, vs untreated HE cells): nearly absent | cholesterol efflux genes (HE cells [1]; day 2, DCA-treated HE cells): higher levels | percentage of cells in cluster 6 (HE cells [1]; day 2, UK5099 10 μM or DCA 3 mM): constant between conditions | HBA1-2 (adult globin) expression (HE cells [2]): did not have an effect | proliferation of CD45+ cells deriving from HE (HE cells [3]; CTV, UK5099 10 μM or DCA 3 mM): not affected | frequency of HSC-like cells deriving from HE (HE cells [3]; UK5099 10 μM or DCA 3 mM): not affected | proliferation of the GPA+ population deriving from HE (HE cells [3]; day 3, CTV, UK5099 10 μM or DCA 3 mM): not affected | HE-derived CD43+GPA+ cell output (HE cells [3]; day 3 of subculture vs control, BPTES 25 μM, UK5099 10 μM, 1-AA 4 mM, DCA 3 mM): not significantly altered | proliferation by EdU incorporation (HE cells [3]; days 1 and 2 of subculture, 24 h pulse): no differences | CD43+ cell levels vs control (HE cells [3]; without glutamine, DCA alone): could not restore | NK cell differentiation (CD45+CD56+) (HE cells [4]): significantly increased
